The source of these data is article PMC12431657, “Discovery and mechanistic insights of dibenzoylmethane as a broad spectrum inhibitor of coronavirus” (PLOS Pathogens, 2025).

Structures are written as SMILES. Where two headings read alike, the source gives them in different places. About 60 (2%) of roughly 3,300 compounds showed an effect of 50% or more. The list shows a part of the results.

This assay relates to HCoV-OC43. The arrangement: species or system RD; HTS, protection from HCoV-OC43 induced cell death, luminescent cell viability (CellCounting-Lite 2.0), inhibition rate. The note with it: 24 h post infection, 1 h compound pre-incubation, 10 µM, inhibitor.

In the case of `C[C@@H]1CC[C@@]2(OC1)O[C@H]1C[C@H]3[C@@H]4CC=C5C[C@@H](O[C@@H]6O[C@H](CO)[C@@H](O[C@@H]7O[C@H](CO)[C@@H](O)[C@H](O)[C@H]7O)[C@H](O)[C@H]6O[C@@H]6O[C@@H](C)[C@H](O)[C@@H](O)[C@H]6O)CC[C@]5(C)[C@H]4CC[C@]3(C)[C@H]1[C@@H]2C` [Deltonin], the “OC43 Inhibition rate” value is recorded as -3.7%. Take `O=C(CCc1ccc(O)cc1)c1c(O)cc(O)cc1O` [Phloretin]: the “OC43 Inhibition rate” value is on record as -0.3%. As to `CC(=O)OC/C1=C\[C@H]2[C@@H](OC(=O)/C=C/c3ccccc3)[C@@H](C)C[C@]2(OC(C)=O)C(=O)/C(C)=C/[C@@H]2[C@H](CC1)C2(C)C` [Euphorbia factor L7a], the “OC43 Inhibition rate” value came to 75.3%. As to `CC(=O)OCC1=C[C@@H]2OC(=O)C3=CO[C@@H](O[C@@H]4O[C@H](CO)[C@@H](O)[C@H](O)[C@H]4O)[C@H]1[C@@H]32` [Asperuloside], the “OC43 Inhibition rate” value was 0.7%.

For `C[C@H](CC[C@@H](O[C@@H]1O[C@H](CO[C@@H]2O[C@H](CO)[C@@H](O)[C@H](O)[C@H]2O)[C@@H](O)[C@H](O)[C@H]1O[C@@H]1O[C@H](CO)[C@@H](O)[C@H](O)[C@H]1O)C(C)(C)O)[C@H]1CC[C@@]2(C)[C@@H]3CC=C4[C@@H](CC[C@H](O[C@@H]5O[C@H](CO[C@@H]6O[C@H](CO)[C@@H](O)[C@H](O)[C@H]6O)[C@@H](O)[C@H](O)[C@H]5O)C4(C)C)[C@]3(C)[C@H](O)C[C@]12C` [Mogroside V], the “OC43 Inhibition rate” value is reported as 0.3%. In the case of `CC(=O)OCc1cocc2c(C=O)ccc1-2` [Baldrinal], the “OC43 Inhibition rate” value is recorded as 0.3%. Turning to `COc1c(C)c(O)cc2[o+]c(-c3ccccc3)ccc12` [Dracorhodin perchlorate], the “OC43 Inhibition rate” value was 2.9%.

On to `CC(C)=C[C@H]1C[C@](C)(O)[C@@H]2[C@H]3CC[C@@H]4[C@@]5(C)CC[C@H](O[C@@H]6O[C@H](CO)[C@@H](O)[C@H](O[C@@H]7O[C@H](CO)[C@@H](O)[C@H](O)[C@H]7O)[C@H]6O[C@@H]6O[C@@H](CO)[C@H](O)[C@H]6O)C(C)(C)[C@@H]5CC[C@@]4(C)[C@@]34CO[C@@]2(C4)O1` [Bacoside A3], for which the “OC43 Inhibition rate” value is -1.3%. Same read-out and setting: with `CC(=O)O[C@@H]1CC[C@@]2(C)[C@@H](CC[C@]3(C)[C@@H]2CC=C2[C@@H]4CC(C)(C)CC[C@]4(C)CC[C@]23C)[C@@]1(C)C(=O)O` [3-O-Acetyl-α-boswellic acid] the figure was 0%; with `O=C1C=C(O)C(=O)c2ccccc21` [Lawsone], -0.1%; with `C/C=C(/C)C(=O)O[C@H]1c2cc(OC)c(OC)c(OC)c2-c2c(cc(OC)c(OC)c2OC)C[C@H](C)[C@]1(C)O` [Angeloylgomisin Q], 0.8%. In the case of `CN1CC(=O)NC1=O` [N-Methylhydantoin], the “OC43 Inhibition rate” value is given as -0.4%. Regarding `CC1(C)[C@@H]2CC[C@@]1(C)[C@H](O)C2` [Isoborneol], the “OC43 Inhibition rate” value was -0.3%. On to `NCCCCNCCCN` [Spermidine], for which the “OC43 Inhibition rate” value (OC43 Inhibition rate, 24 h) is -0.8%. Regarding `CC(CO)C(=O)O` (stereo not drawn) [3-Hydroxyisobutyric acid], the “OC43 Inhibition rate” value came to 0.6%.

As for `O=C(OCc1ccccc1)c1ccccc1O` [Benzyl salicylate], the “OC43 Inhibition rate” value stood at 0.1%. On the same count and under the same terms, with `COc1cc2c(=O)c(-c3ccc(O)cc3)coc2cc1O` [Glycitein] the figure was 2.8%; with `O=C(CCCCc1ccc2c(c1)OCO2)N1CCCCC1` [Tetrahydropiperine], 0.1%. With `O=C(/C=C/c1ccccc1)c1ccccc1` [Chalcone], for the setting “OC43 Inhibition rate, 24 h”, the “OC43 Inhibition rate” value amounted to 0%.

Regarding `COC(=O)CC(C)=O` [Methyl acetylacetate], the “OC43 Inhibition rate” value is -1.4%.

On to `COC(=O)C1=CO[C@@H](O[C@@H]2O[C@H](CO)[C@@H](O)[C@H](O)[C@H]2O)[C@H]2[C@@H]1[C@H](O)C[C@]2(C)OC(C)=O` [Barlerin], for which the “OC43 Inhibition rate” value is recorded as -0.3%. On the same count and under the same terms, under `Oc1cc(O)c2c(c1)O[C@H](c1ccc(O)c(O)c1)[C@H](O)C2` [(-)-Epicatechin] stands -0.7%. Still for that read-out and setting: under `O=C(O)CCCCCCCCCCCCCCCCC(=O)O` [Octadecanedioic acid] stands -0.2%. The same measure, in the same setting: under `CC(C)=CCC12Oc3cc(O)ccc3C1(O)Oc1cc(O)c([C@H]3C=C(C)C[C@@H](c4ccc(O)cc4O)[C@@H]3C(=O)c3ccc(O)cc3O)c(O)c1C2=O` (stereo partly drawn) [Sanggenon D] stands 42.1%; under `CCCCC/C=C/C(=O)CCc1ccc(O)c(OC)c1` [Shogaol], 2.7%; under `O=C(O)[C@@H](O)[C@H](O)[C@H](O)[C@@H](O)C(=O)O` [Mucic acid], -0.6%.

`N[C@H]1C(O)O[C@H](CO)[C@@H](O)[C@@H]1O` (stereo partly drawn) [Glucosamine (sulfate)]: the “OC43 Inhibition rate” value (OC43 Inhibition rate, 24 h) is -0.2%. `C/C=C(/C)C(=O)Oc1c(OC)c(OC)cc2c1-c1c(cc(OC)c(OC)c1OC)C[C@](C)(O)[C@@H](C)C2` [Angeloylgomisin H]: the “OC43 Inhibition rate” value was -1.4%. In the case of `O=C1C[C@@H](c2ccc(O[C@@H]3O[C@H](CO)[C@@H](O)[C@H](O)[C@H]3O)cc2)Oc2cc(O)cc(O)c21` [Choerospondin], the “OC43 Inhibition rate” value is 0.4%. With `CC(C)=CCc1c(O)ccc(C(=O)/C=C/c2ccc(O)cc2)c1O` [Isobavachalcone], the “OC43 Inhibition rate” value stood at 2%. Take `C/C=C/c1ccc(OC)cc1` [Trans-Anethole]: the “OC43 Inhibition rate” value (OC43 Inhibition rate, 24 h) is listed as 0.5%.

As for `CO[C@H]1/C=C/O[C@@]2(C)Oc3c(C)c(O)c4c(O)c(cc(O)c4c3C2=O)NC(=O)/C(C)=C\C=C\[C@H](C)[C@H](O)[C@@H](C)[C@@H](O)[C@@H](C)[C@H](OC(C)=O)[C@@H]1C` [Rifamycin (sodium)], the “OC43 Inhibition rate” value worked out at 22.2%. The same measure, in the same setting: with `CCCCCCCCCCCCCC(=O)O[C@@H]1[C@@H](C)[C@@]2(O)[C@@H](C=C(CO)C[C@]3(O)C(=O)C(C)=C[C@@H]23)[C@@H]2C(C)(C)[C@]12OC(C)=O` [Phorbol 12-myristate 13-acetate] the figure was 30.1%; with `C[C@H](CCC(=O)NCC(=O)O)[C@H]1CC[C@H]2[C@@H]3[C@@H](O)C[C@@H]4C[C@H](O)CC[C@]4(C)[C@H]3CC[C@]12C` [Glycoursodeoxycholic acid], -0.4%; with `CCO[C@@H]1O[C@H](C(=O)O)[C@@H](O)[C@H](O)[C@H]1O` [Ethyl glucuronide], 4.2%. On the same count and under the same terms, with `Cn1c(=O)[nH]c(=O)c2[nH]cnc21` [3-Methylxanthine] the figure was -0.2%. The same measure, in the same setting: under `COc1ccc(-c2cc(=O)c3c(O)c(OC)c(O[C@@H]4O[C@H](CO[C@@H]5O[C@@H](C)[C@H](O)[C@@H](O)[C@H]5O)[C@@H](O)[C@H](O)[C@H]4O)cc3o2)cc1` [Pectolinarin] stands 0.2%; under `COc1ccc(C[C@H]2COC(=O)[C@@H]2Cc2ccc(O[C@@H]3O[C@H](CO)[C@@H](O)[C@H](O)[C@H]3O)c(OC)c2)cc1OC` [Arctiin], -2.6%; under `O=C(O)[C@H](O)c1ccccc1` [D-(-)-Mandelic acid], -1.3%. In the case of `CCCCCCC/C=C/C(=O)N1C(=O)C(C(C)=O)=C(O)[C@H]1CC(C)C` [Reutericyclin], the “OC43 Inhibition rate” value is -0.7%. For `COc1cc(OC)c(CCC(=O)c2ccc(O)cc2)c(OC)c1` [Loureirin B], the “OC43 Inhibition rate” value came out at 0.8%. On the same count and under the same terms, with `O=c1c(O)c(-c2ccc(O)cc2)oc2cc(O)ccc12` [3,7,4'-Trihydroxyflavone] the figure was 6.8%. With `N[C@@H](Cc1c[nH]c2ccc(O)cc12)C(=O)O` [L-5-Hydroxytryptophan], the “OC43 Inhibition rate” value (OC43 Inhibition rate, 24 h) is -0.8%. For the compound `OCC1=C[C@@H](O)[C@]2(O[C@@H]3O[C@H](CO)[C@@H](O)[C@H](O)[C@H]3O)C=CO[C@@H](O[C@@H]3O[C@H](CO)[C@@H](O)[C@H](O)[C@H]3O)[C@H]12` [Melittoside], the “OC43 Inhibition rate” value was found to be 1.8%.

In the case of `Oc1ccc2c(c1)OC[C@H]1c3cc4c(cc3O[C@@H]21)OCO4` [Maackiain], the “OC43 Inhibition rate” value (OC43 Inhibition rate, 24 h) was determined as 2.3%. In the case of `c1ccc2[nH]ccc2c1` [Indole], the “OC43 Inhibition rate” value is given as -0.4%. `COc1cc(O[C@@H]2O[C@H](CO[C@@H]3O[C@H](CO)[C@@H](O)[C@H](O)[C@H]3O)[C@@H](O)[C@H](O)[C@H]2O)c2c(O)c3c(=O)cc(C)oc3cc2c1` [Rubrofusarin gentiobioside]: the “OC43 Inhibition rate” value is 1.1%. Turning to `Cn1cnc2[nH]c(=O)[nH]c(=O)c21` [7-Methylxanthine], the “OC43 Inhibition rate” value is -1.5%.

With `O=c1cc(-c2ccccc2)c2cc(O)c(O)cc2o1` [Nordalbergin], the “OC43 Inhibition rate” value amounted to 0.7%. Still for that read-out and setting: under `O=C(O)CNC(=O)/C=C/c1ccccc1` [Cinnamoylglycine] stands 0%.

Regarding `CC1CNC(=O)NC1=O` (stereo not drawn) [5,6-Dihydro-5-methyluracil], the “OC43 Inhibition rate” value is 0.1%. Turning to `Cc1cc(O)c2c(c1)C(=O)c1cccc(O)c1C2=O` [Chrysophanol], the “OC43 Inhibition rate” value is given as 0.2%. Still for that read-out and setting: under `COc1ccc(-c2cc(=O)c3c(O)cc(O[C@@H]4O[C@H](CO)[C@@H](O)[C@H](O)[C@H]4O)cc3o2)cc1` [Tilianin] stands 8.5%. On the same count and under the same terms, under `C[C@H](CCC(=O)O)[C@H]1CC[C@H]2[C@@H]3[C@H](O)CC4=CC(=O)CC[C@]4(C)[C@H]3CC[C@]12C` [3-Oxo-7-hydroxychol-4-enoic acid] stands -1%; under `O=c1ccc2cc(O)c(O)cc2o1` [Esculetin], -0.3%. For the compound `C[C@@H]1CC[C@@]2(OC1)O[C@H]1C[C@H]3[C@@H]4CC=C5C[C@@H](O)C[C@@H](O[C@@H]6O[C@H](C)[C@H](O)[C@H](O[C@@H]7OC[C@@H](O)[C@H](O)[C@H]7O)[C@H]6O[C@@H]6O[C@@H](C)[C@H](O)[C@@H](O)[C@H]6O)[C@]5(C)[C@H]4CC[C@]3(C)[C@H]1[C@@H]2C` [Ophiopogonin D'], the “OC43 Inhibition rate” value (OC43 Inhibition rate, 24 h) was -0.3%. Regarding `COc1cc([C@@H]2OC[C@@H]3[C@H]2CO[C@H]3c2cc(OC)c(O)c(OC)c2)cc(OC)c1O` [(-)-Syringaresinol], the “OC43 Inhibition rate” value was found to be 0.6%.
